Measurements reported in PubChem BioAssay AID1259272 (Sanger Institute, 2017).

- Test: 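Kinome-wide siRNA search for genes whose silencing boosts targeted drug effects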 (primary screen)
- Cell system: SW1116 human colorectal cancer cells
- Knock-down reagent: siRNA pool against human genes
- Treatment: anchor drugs BYL719 (1 µM), cetuximab (5 µg/ml) or trametinib (10 nM), or DMSO vehicle; exposure length not given
- Measurement: 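Cell survival as a fraction of wells given a non-targeting pool, averaged over replicates; robust z-score without drug; synergy score for each of BYL719, cetuximab and trametinib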
- Direction: viability z-score, no drug: higher = more cells remaining; strongly negative means essential gene
- Hit rule: 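Called essential if the drug-free knock-down gives a robust viability z-score below -3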
- Calls: active = essential (knock-down alone); inactive = no change
In all, the deposit lists 794 reagents; this is a part drawn at random. Of all reagents, 7 (0.88%) were called active. 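Essential calls reflect knock-down without drug only, not synergy with drugs; drug exposure length not given.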 Entries without a mark were called inactive. Not all columns of the deposit are shown. Not given: the amount of reagent, the time to read-out.

gene	viability z-score, no drug
IDH2 (isocitrate dehydrogenase (NADP(+)) 2)	0.0115
STK24 (serine/threonine kinase 24)	0.343
PSTK (phosphoseryl-tRNA kinase)	0.842
ARID1A (AT-rich interaction domain 1A)	0.121
AAK1 (AP2 associated kinase 1)	-0.0431
RPS6KA4 (ribosomal protein S6 kinase A4)	0.842
AKAP9 (A-kinase anchoring protein 9)	-0.625
PIP5K1A (phosphatidylinositol-4-phosphate 5-kinase type 1 alpha)	0.778
FXN (frataxin)	0.842
NUP98 (nucleoporin 98 and 96 precursor)	-1.22
TGFBR1 (transforming growth factor beta receptor 1)	-0.531
SPHK1 (sphingosine kinase 1)	0.842
ACVR1B (activin A receptor type 1B)	-0.179
DGKQ (diacylglycerol kinase theta)	0.842
OXSR1 (oxidative stress responsive kinase 1)	-0.431
FGFR4 (fibroblast growth factor receptor 4)	0.842
TNK1 (tyrosine kinase non receptor 1)	-0.929
BRSK2 (BR serine/threonine kinase 2)	0.842
SNRK (SNF related kinase)	0.842
RET (ret proto-oncogene)	0.842
FLT1 (fms related receptor tyrosine kinase 1)	0.842
NME4 (NME/NM23 nucleoside diphosphate kinase 4)	-0.312
GUCY2F (guanylate cyclase 2F, retinal)	0.41
CSNK1G1 (casein kinase 1 gamma 1)	-0.0626
FASTK (Fas activated serine/threonine kinase)	0.842
IKBKG	0.277
MINK1 (misshapen like kinase 1)	0.634
CDK14 (cyclin dependent kinase 14)	-1.53
BLK (BLK proto-oncogene, Src family tyrosine kinase)	0.842
EFNA3 (ephrin A3)	0.842
GTF2H1 (general transcription factor IIH subunit 1)	-0.857
TLK2 (tousled like kinase 2)	0.842
TPD52L3 (TPD52 like 3)	0.194
ARAF (A-Raf proto-oncogene, serine/threonine kinase)	0.842
SRPK1 (SRSF protein kinase 1)	0.842
SIK1 (salt inducible kinase 1)	-1.03
AK2 (adenylate kinase 2)	-0.789
RAF1 (Raf-1 proto-oncogene, serine/threonine kinase)	0.842
CDK16 (cyclin dependent kinase 16)	0.842

Individual results from the entries so far.
Under “viability z-score, no drug”, AKAP9 (A-kinase anchoring protein 9) has -0.625
Entry of BLK (BLK proto-oncogene, Src family tyrosine kinase) in “viability z-score, no drug”: 0.842
Result for RAF1 (Raf-1 proto-oncogene, serine/threonine kinase) in “viability z-score, no drug”: 0.842

Further records follow:
gene	viability z-score, no drug
STK33 (serine/threonine kinase 33)	-1.63
EPHA4 (EPH receptor A4)	0.683
MAP4K1 (mitogen-activated protein kinase kinase kinase kinase 1)	-0.244
AGK (acylglycerol kinase)	-0.843
CPNE3 (copine 3)	0.842
CKMT1B (creatine kinase, mitochondrial 1B)	-0.849
PTPRU (protein tyrosine phosphatase receptor type U)	-0.445
GRK5 (G protein-coupled receptor kinase 5)	0.842
MAP3K15 (mitogen-activated protein kinase kinase kinase 15)	0.842
PAK3 (p21 (RAC1) activated kinase 3)	-0.592
MAPK6 (mitogen-activated protein kinase 6)	0.0816
MAPKAPK3 (MAPK activated protein kinase 3)	0.141
AURKC (aurora kinase C)	-0.228
RTN4 (reticulon 4)	-0.812
NLK (nemo like kinase)	0.782
CDKL5 (cyclin dependent kinase like 5)	0.165
STK11 (serine/threonine kinase 11)	-0.438
ALPK1 (alpha kinase 1)	0.408
MOK (MOK protein kinase)	0.842
CDK5 (cyclin dependent kinase 5)	0.276
RFK (riboflavin kinase)	-1.72
PRKCB (protein kinase C beta)	-1.22
RIOK1 (RIO kinase 1)	-0.247
IP6K3 (inositol hexakisphosphate kinase 3)	-0.991
